Measurements published in PMC8576330.
No constants are given. Whether binding was seen depends on the method and setting. Binding seen in cells or lysates may run through a third protein. Some binding calls cover weakened binding; strength is not graded here.

Sequences of proteins named here, by UniProt entry; tags and fusion partners are left off.
UniProt P84022: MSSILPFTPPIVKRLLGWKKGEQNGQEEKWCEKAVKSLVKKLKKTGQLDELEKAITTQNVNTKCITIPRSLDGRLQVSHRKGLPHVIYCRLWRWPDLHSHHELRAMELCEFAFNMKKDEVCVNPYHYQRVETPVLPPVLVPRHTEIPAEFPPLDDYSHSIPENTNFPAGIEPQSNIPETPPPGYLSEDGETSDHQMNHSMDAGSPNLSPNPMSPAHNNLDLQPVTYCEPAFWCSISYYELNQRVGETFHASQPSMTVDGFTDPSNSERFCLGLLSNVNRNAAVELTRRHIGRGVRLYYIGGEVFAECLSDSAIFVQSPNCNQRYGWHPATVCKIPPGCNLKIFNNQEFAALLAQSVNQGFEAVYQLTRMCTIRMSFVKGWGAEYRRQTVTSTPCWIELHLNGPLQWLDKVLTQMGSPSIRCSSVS

What was measured:
[1] = molecular target: YAPS127A stably expressed in K-HOS cells (pQCXIH-Flag-YAP-S127A) (UniProt P46937); experiment: proximity ligation; in situ Duolink PLA on fixed osteosarcoma cells (HOS, MG63, G292; mock-, YAPS94A- and YAPS127A-stably transfected K-HOS) with antibodies against YAP and Smad3, in the presence or absence of TGF-β1 (5 ng/ml, 45 min in the methods, 1 h in the legend)
[2] = molecular target: YAPS94A stably expressed in K-HOS cells (pQCXIH-Myc-YAP-S94A) (UniProt P46937); experiment: as above
[3] = molecular target: YAPS127A-Flag (pCMV-Flag-S127A-YAP) (UniProt P46937); experiment: co-IP; HEK293 cells co-transfected with Flag-YAP mutants and Smad3-Myc, treated with TGF-β1 (5 ng/ml); lysate immunoprecipitated with anti-Flag antibody and Protein-A/G-agarose, Western blot with YAP and Smad3 antibodies
[4] = molecular target: YAPS94A-Flag (pCMV-Flag-YAP-S94A) (UniProt P46937); experiment: as above

binding [1]	binding [2]	binding [3]	binding [4]	Substance
binds	binds	–	–	Smad3, endogenous (from UniProt P84022 1-425)
–	–	binds	binds	Smad3-Myc (from UniProt P84022 1-425)
